{"source": "the supplement of paper PMC7824004", "note": "The list shows a part of the results. The data scatter; read single values as rough.", "data": [{"system": "Candida albicans SN425", "test": "biofilm OD600 B-score; higher = more biofilm (less inhibition)", "details": "10 µM; assay detail: High-throughput adherence inhibition optical density biofilm assay with C. albicans SN425 in RPMI-1640/MOPS pH 7.0, 384-well plates. …", "description": "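High-throughput adherence inhibition optical density biofilm assay with C. albicans SN425 in RPMI-1640/MOPS pH 7.0, 384-well plates. Compound (10 µM) was present only during the 90 min adherence step, then washed out, and the biofilm grew 24 h without compound. Biofilm was read as OD600 after removing the media. Scores are the difference from the mean in standard deviations and the plate B-score.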", "values": [{"smiles": "CC(=O)Nc1cccc(NC(=O)Cc2ccccc2)c1", "biofilm OD600 B-score": -0.107}, {"smiles": "CC(=O)Nc1ccc(S(=O)(=O)Nc2ccc(Cl)cc2F)cc1", "biofilm OD600 B-score": -1.17}, {"smiles": "O=C(O)c1cc(S(=O)(=O)N2CCCC2)ccc1Br", "biofilm OD600 B-score": -0.517}, {"smiles": "Cc1ccc(-c2csc(Nc3ccccn3)n2)cc1C", "biofilm OD600 B-score": 2.29}, {"smiles": "COc1cc(Cl)c(S(=O)(=O)N2CCN(C)CC2)cc1Cl", "biofilm OD600 B-score": 0.0149}, {"smiles": "CC(=O)Nc1ccc(CNc2ccc3c(c2)CCC3)cc1", "biofilm OD600 B-score": -0.701}, {"smiles": "Cc1ccc(COC(=O)NCc2cccnc2)cc1", "biofilm OD600 B-score": 0.867}, {"smiles": "C/C=C(\\C)CN1CCN(CCOCCO)CC1", "biofilm OD600 B-score": 0.517}, {"smiles": "CSc1ccc(S(=O)(=O)NCc2ccncc2)cc1", "biofilm OD600 B-score": 1.25}, {"smiles": "COc1ccccc1Cc1nc(-c2cccnc2)no1", "biofilm OD600 B-score": -0.587}, {"smiles": "Cc1onc(-c2c(F)cccc2Cl)c1C(=O)N1CCOCC1", "biofilm OD600 B-score": -2.28}, {"smiles": "CN1CCN(CC(O)COc2ccccc2)CC1", "note": "(configuration not stated)", "biofilm OD600 B-score": 2.5}, {"smiles": "C=CCc1ccc(OCC(O)CN2CCN(CC)CC2)c(OC)c1", "note": "(configuration not stated)", "biofilm OD600 B-score": 0.418}, {"smiles": "CN(C)c1nc(N)nc(-c2ccco2)n1", "biofilm OD600 B-score": -0.0619}, {"smiles": "O=C(Nc1ccc(N2CCOCC2)cc1)Nc1ccc2snnc2c1", "biofilm OD600 B-score": 0.483}, {"smiles": "O=[N+]([O-])c1ccccc1CN1CCN(c2ccccn2)CC1", "biofilm OD600 B-score": -1.01}, {"smiles": "CCc1nc(-c2ccccc2)cc(=O)[nH]1", "biofilm OD600 B-score": 0.164}, {"smiles": "CCC1CCC(NCCN2CCOCC2)CC1", "note": "(configuration not stated)", "biofilm OD600 B-score": -3.58}, {"smiles": "O=C(Cc1ccc(F)cc1)NCc1ccccn1", "biofilm OD600 B-score": -3}, {"smiles": "COc1cc(NC(=O)[C@@H]2C3C=CC(C3)[C@@H]2C(=O)O)c(OC)cc1Cl", "note": "(some centres not stated)", "biofilm OD600 B-score": -1.42}, {"smiles": "O=C(Nc1ccc(C(=O)N2CCOCC2)cc1)C1COc2ccccc2O1", "note": "(configuration not stated)", "biofilm OD600 B-score": 0.376}, {"smiles": "COc1ccccc1N1CCN(C(=O)Nc2ccc([N+](=O)[O-])cc2)CC1", "biofilm OD600 B-score": -1.5}]}]}
